Laboratory results from PubChem BioAssay AID330 (DTP/NCI, 2004).
The list is a part of this screen's results and no random one: it is rich in T/C values a quarter to a half above the control, in often repeated tests (any T/C) and in doses without a T/C. Other doses and runs of a compound stand elsewhere. T/C: endpoint of the treated group in % of that of the vehicle group. Some doses have a count of surviving animals in place of a T/C: the source holds a T/C of zero for them, seemingly a mark for toxic or unscored doses. Some survivor counts are full or nearly so, which does not show that the dose was tolerated: the source hardly ever lists a survival T/C far under the control, and the zero likely stands for such cases as well. Survivors were counted at the toxicity check, usually on the fifth day, unless a day is given; later deaths do not show. Schedule codes are those of the source, taken here to give the interval after Q, in days (D) or hours (H), and the number of doses after X. Some entries were tested several times; the values are given in rising order. Counts like (3×) stand for listed records that agree. For survival time, this PubChem deposit counts one and a half times the control or more as active, and values a quarter to a half above the control carry no call in these data; other NCI protocols may use other cut-offs. Some T/C values are followed by the survivors on the day toxicity was checked, most often the fifth; where none is given, no animal had died by that day.

Test system: P388 leukemia ip, CD2F1 mice, survival T/C
Assay: NCI In Vivo Anticancer Drug Screen. Data for tumor model P388 Leukemia (intraperitoneal) in CD2F1 (CDF1) mice
Conditions: T/C endpoint: median survival time, higher T/C = longer survival
[1] = dose: 200.0 mg/kg/injection, schedule: Q01DX009 (ip), vehicle: Klucel (hydroxypropylcellulose) (HPC)
[2] = dose: 200.0 mg/kg/injection, schedule: Q04DX003 (ip), vehicle: Klucel (hydroxypropylcellulose) (HPC)
[3] = dose: 400.0 mg/kg/injection, schedule: Q04DX003 (ip), vehicle: Klucel (hydroxypropylcellulose) (HPC)
[4] = dose: 50.0 mg/kg/injection, schedule: Q01DX009 (ip), vehicle: saline with Tween-80
[5] = dose: 25.0 mg/kg/injection, schedule: Q01DX009 (ip), vehicle: saline with Tween-80
[6] = dose: 100.0 mg/kg/injection, schedule: Q01DX009 (ip), vehicle: saline with Tween-80
[7] = dose: 200.0 mg/kg/injection, schedule: Q01DX009 (ip), vehicle: saline with Tween-80
[8] = dose: 50.0 mg/kg/injection, schedule: Q01DX005 (ip), vehicle: Klucel (hydroxypropylcellulose) (HPC)
[9] = dose: 400.0 mg/kg/injection, schedule: Q04DX003 (ip), vehicle: saline with Tween-80
[10] = dose: 25.0 mg/kg/injection, schedule: Q01DX009 (ip), vehicle: saline
[11] = dose: 200.0 mg/kg/injection, schedule: Q01DX009 (ip), vehicle: saline
[12] = dose: 240.0 mg/kg/injection, schedule: Q01DX005 (ip), vehicle: Klucel (hydroxypropylcellulose) (HPC)
[13] = dose: 50.0 mg/kg/injection, schedule: Q01DX009 (ip), vehicle: saline
[14] = dose: 100.0 mg/kg/injection, schedule: Q01DX005 (ip), vehicle: Klucel (hydroxypropylcellulose) (HPC)
[15] = dose: 200.0 mg/kg/injection, schedule: Q01DX005 (ip), vehicle: Klucel (hydroxypropylcellulose) (HPC)

`O=[n+]1ccn([O-])c2ccccc21.[Cu+2].[O-][Cl+3]([O-])([O-])O` was tested, and the survivor count (dose: 100.0 mg/kg/injection, schedule: Q04DX003 (ip), vehicle: saline + Tween-80 + alcohol) was 0 of 6, the survivor count (dose: 200.0 mg/kg/injection, schedule: Q04DX003 (ip), vehicle: saline + Tween-80 + alcohol) was 0 of 6 and the survivor count (dose: 400.0 mg/kg/injection, schedule: Q04DX003 (ip), vehicle: saline + Tween-80 + alcohol) was 0 of 6.

With `N#CCC(=O)CCCCCCCO` the survivor count (dose: 200.0 mg/kg/injection, schedule: Q01DX001 (ip), vehicle: saline) was 6 of 6.

`Cc1nc2cc(N)c(Cl)cc2[nH]1` was tested, and the survivor count (dose: 240.0 mg/kg/injection, schedule: Q01DX005 (ip), vehicle: saline with Tween-80) was 0 of 6.

For `CCCCCCCC[As](CCCCCCCC)SC1OC(COC(C)=O)C(OC(C)=O)C(OC(C)=O)C1OC(C)=O` (configuration not stated), the survivor count [1] was 3 of 6.

In the case of `COC(=O)/C=C(\C(=O)OC)C(C(C)=O)C(C)=NCCN=C(C)C(C(C)=O)/C(=C/C(=O)OC)C(=O)OC.[Cu]` (configuration not stated), the survivor count [2] is reported as 0 of 6 and the survivor count [3] is reported as 0 of 6.

With `NC(=S)Nc1cccc2ccccc12` the survivor count [4] was 4 of 6 and the survivor count (dose: 75.0 mg/kg/injection, schedule: Q01DX009 (ip), vehicle: saline with Tween-80) was 0 of 6 and 3 of 6.

With `C(=NCCCN=CC1CCCC[N-]1)C1CCCC[N-]1.[Cu+2].[O-][Cl+3]([O-])([O-])O` (configuration not stated) the survivor count [5] was 2 of 6, the survivor count [4] was 0 of 6 and the survivor count [6] was 0 of 6. The survivor count [7] was 0 of 6.

In the case of `Cc1cc(O)c(C=Nc2ccc3ccccc3c2)c2c1C(=O)Oc1c(CO)c(O)c(C(=O)O)c(C=Nc3ccc4ccccc4c3)c1O2`, the survivor count (dose: 25.0 mg/kg/injection, schedule: Q01DX005 (ip), vehicle: Klucel (hydroxypropylcellulose) (HPC)) is reported as 6 of 6 and the survivor count [8] is reported as 6 of 6.

For `CC(=O)C(O)N1C(=O)C=CC1=O` (configuration not stated), the survivor count (dose: 5.0 mg/kg/injection, schedule: Q01DX009 (ip), vehicle: saline with Tween-80) was 6 of 6 and the survivor count (dose: 10.0 mg/kg/injection, schedule: Q01DX009 (ip), vehicle: saline with Tween-80) was 1 of 6.

In the case of `OC(CCl)Cn1nnc2c3ccccc3ccc21` (configuration not stated), the survivor count [9] is reported as 3 of 6.

With `CC(=O)c1c(O)c(C)c(O)c2c1OC1=CC(=O)C(C(C)=O)C(=O)C12C` (configuration not stated) the T/C [5] was 97, 100, 101, 112 % of control, the T/C [10] was 128 % of control and the T/C [4] was 96 [5 of 6 alive], 99, 100, 101, 102, 108, 113, 115 % of control. For the same compound, the T/C [6] was 107, 108, 118 [4 of 6 alive], 125, 125 [5 of 6 alive], 126 [5 of 6 alive], 141 % of control [5 of 6 alive], the survivor count [6] was 3 of 6 and the survivor count (dose: 100.0 mg/kg/injection, schedule: Q01DX009 (ip), vehicle: saline) was 2 of 3. The survivor count [7] was 0 of 3, 0 of 6 (3×), 3 of 6, 6 of 6 and the survivor count [11] was 0 of 3.

With `C/C=C\C1OC1(C)c1cc(=O)c2c(C)cc3c(c2o1)C(=O)c1c(O)c(C2CC(C)(N(C)C)C(OC(C)=O)C(C)O2)cc(C2CC(N(C)C)C(O)C(C)O2)c1C3=O` (configuration not stated) the T/C (dose: 0.25 mg/kg/injection, schedule: Q01DX009 (ip), vehicle: saline + alcohol) was 131 % of control, the T/C (dose: 0.25 mg/kg/injection, schedule: Q01DX010 (ip), vehicle: saline) was 127 % of control [5 of 6 alive] and the T/C (dose: 0.5 mg/kg/injection, schedule: Q01DX009 (ip), vehicle: saline + alcohol) was 133 and 145 % of control. The T/C (dose: 0.5 mg/kg/injection, schedule: Q01DX010 (ip), vehicle: saline) was 140 % of control [5 of 6 alive] and the T/C (dose: 1.0 mg/kg/injection, schedule: Q01DX009 (ip), vehicle: saline + alcohol) was 140 % of control.

In the case of `COc1ccccc1N1CCN(c2nc(NC(=O)c3ccccc3)nn2C)CC1`, the survivor count [12] is reported as 5 of 6.

With `Cc1ccc(C2=Nc3ccccc3SC(c3cccc([N+](=O)[O-])c3)C2)cc1` (configuration not stated) the survivor count (dose: 12.5 mg/kg/injection, schedule: Q01DX009 (ip), vehicle: saline) was 5 of 6 and the survivor count [10] was 5 of 6.

For `COC(C)(C)[CH]([Hg][Cl])n1ccccc1=O` (configuration not stated), the survivor count (dose: 50.0 mg/kg/injection, schedule: Q04DX003 (ip), vehicle: Klucel (hydroxypropylcellulose) (HPC)) was 0 of 6, the survivor count (dose: 100.0 mg/kg/injection, schedule: Q04DX003 (ip), vehicle: Klucel (hydroxypropylcellulose) (HPC)) was 0 of 6 and the survivor count [2] was 0 of 6. For the same compound, the survivor count [3] was 0 of 6.

In the case of `O=[N+]([O-])c1cc(S(=O)(=O)O)cc([N+](=O)[O-])c1Cl`, the survivor count [1] is reported as 2 of 6.

`O=[N+]([O-])c1ccc(Sc2nccc(Cl)n2)c([N+](=O)[O-])c1` was tested, and the survivor count [13] was 5 of 6.

For `O=C1C(NCC(O)CO)=C(N2CC2)C(=O)C(NCC(O)CO)=C1N1CC1` (configuration not stated), the survivor count (dose: 6.0 mg/kg/injection, schedule: Q01DX009 (ip), vehicle: saline) was 6 of 6.

With `Nc1ccc(C(=O)Oc2ccc([N+](=O)[O-])cc2)cc1` the survivor count [9] was 6 of 6.

`Oc1c(Cl)cc(Cl)cc1C=NCCSc1ccc(Cl)cc1` was tested, and the T/C (dose: 200.0 mg/kg/injection, schedule: Q01DX005 (ip), vehicle: Klucel (hydroxypropylcellulose) (HPC), evaluated on day 20) was 112 % of control, the T/C (dose: 200.0 mg/kg/injection, schedule: Q01DX005 (ip), vehicle: Klucel (hydroxypropylcellulose) (HPC), evaluated on day 30) was 112, 115, 125 % of control and the T/C (dose: 400.0 mg/kg/injection, schedule: Q01DX005 (ip), vehicle: Klucel (hydroxypropylcellulose) (HPC)) was 129 % of control. The survivor count (dose: 800.0 mg/kg/injection, schedule: Q01DX005 (ip), vehicle: Klucel (hydroxypropylcellulose) (HPC)) was 0 of 6.

`Cc1nc(=S)c2ncn(-c3ccccc3)c2[nH]1` was tested, and the survivor count [12] was 6 of 6.

`CC[n+]1ccc(/C=C\c2c(Cl)cccc2Cl)cc1` was tested, and the survivor count [13] was 4 of 6.

In the case of `O=C(Nc1ccc(C2=NCCN2)cc1)c1cc2ccc(C3=NCCN3)cc2o1`, the survivor count (dose: 400.0 mg/kg/injection, schedule: Q04DX003 (ip), vehicle: suspension in saline) is reported as 3 of 6.

With `NCCNc1ccc(NCCN)c2c1C(=O)c1ccccc1C2=O` the T/C (dose: 1.56 mg/kg/injection, schedule: Q01DX009 (ip), vehicle: distilled water + alcohol) was 137 % of control, the survivor count (dose: 32.0 mg/kg/injection, schedule: Q01DX009 (ip), vehicle: acid diluted with saline) was 5 of 8 and the survivor count (dose: 50.0 mg/kg/injection, schedule: Q01DX009 (ip), vehicle: other) was 6 of 6. The survivor count (dose: 100.0 mg/kg/injection, schedule: Q01DX009 (ip), vehicle: other) was 0 of 6, the survivor count (dose: 200.0 mg/kg/injection, schedule: Q01DX009 (ip), vehicle: other) was 1 of 6 and the survivor count (dose: 400.0 mg/kg/injection, schedule: Q01DX009 (ip), vehicle: other) was 1 of 6.

In the case of `CCCCn1c(CCC)nc([N+](=O)[O-])c1Sc1ncn[nH]1`, the T/C [14] is reported as 125 % of control.

With `CN1C2CCC1C1N=NN(c3cc(C(F)(F)F)cc(C(F)(F)F)c3)C1(N1CCOCC1)C2` (configuration not stated) the survivor count (dose: 200.0 mg/kg/injection, schedule: Q01DX005 (ip), vehicle: Klucel + Tween-80) was 6 of 6.

For `O=C(Nc1ccc(Cl)cc1)NC1OC(=O)C(Cl)=C1Cl` (configuration not stated), the survivor count [11] was 2 of 6.

`C=CCSC(=NC#N)SC` was tested, and the survivor count [8] was 0 of 6, the survivor count [14] was 0 of 6 and the survivor count [15] was 0 of 6.

For `CCOc1ccc(C2=C(O)/C(=C(\C(=O)Nc3nccs3)c3ccc(OCC)cc3)OC2=O)cc1`, the survivor count [14] was 1 of 6 and the survivor count [15] was 0 of 6.

For `O=C(O)COc1ccc(I)cc1I`, the survivor count [3] was 2 of 4.

With `C[Si](C)(CNCCN)c1ccccc1` the survivor count (dose: 240.0 mg/kg/injection, schedule: Q01DX005 (ip), vehicle: saline) was 0 of 6.

With `Clc1ccc2[nH]c3c(c2c1)CCCC3` the survivor count [9] was 3 of 6.
